This note sets out measurements from US20150337356A1.

Sequences of proteins named here, by UniProt entry; tags and fusion partners are left off. A change or cut given only in a name is not applied to a line headed by its entry. A line that says so, or that is headed by a name, gives the form on record, which may keep a tag or linker.
UniProt P78536: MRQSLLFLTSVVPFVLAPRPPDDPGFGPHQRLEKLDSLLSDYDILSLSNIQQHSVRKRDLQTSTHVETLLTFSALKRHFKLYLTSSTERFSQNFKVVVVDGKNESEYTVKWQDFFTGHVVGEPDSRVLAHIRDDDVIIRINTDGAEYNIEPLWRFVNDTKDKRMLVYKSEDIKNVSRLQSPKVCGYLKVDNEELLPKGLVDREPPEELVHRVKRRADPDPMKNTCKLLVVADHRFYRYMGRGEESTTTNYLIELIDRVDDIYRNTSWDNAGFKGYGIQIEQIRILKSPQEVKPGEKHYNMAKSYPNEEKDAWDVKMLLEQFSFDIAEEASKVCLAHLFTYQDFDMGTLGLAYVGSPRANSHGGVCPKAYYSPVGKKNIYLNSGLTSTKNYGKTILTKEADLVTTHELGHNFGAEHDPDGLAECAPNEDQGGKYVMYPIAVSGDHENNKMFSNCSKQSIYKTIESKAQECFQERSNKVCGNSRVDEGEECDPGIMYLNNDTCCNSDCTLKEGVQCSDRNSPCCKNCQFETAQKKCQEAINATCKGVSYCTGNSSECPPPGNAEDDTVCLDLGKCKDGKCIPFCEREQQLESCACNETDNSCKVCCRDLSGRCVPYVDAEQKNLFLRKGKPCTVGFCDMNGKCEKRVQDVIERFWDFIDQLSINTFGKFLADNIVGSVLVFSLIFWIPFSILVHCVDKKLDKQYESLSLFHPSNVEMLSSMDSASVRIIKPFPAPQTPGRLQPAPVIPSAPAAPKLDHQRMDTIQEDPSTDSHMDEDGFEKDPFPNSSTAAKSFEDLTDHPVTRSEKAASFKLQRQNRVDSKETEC
paxillin (wild type) (P49023, form named): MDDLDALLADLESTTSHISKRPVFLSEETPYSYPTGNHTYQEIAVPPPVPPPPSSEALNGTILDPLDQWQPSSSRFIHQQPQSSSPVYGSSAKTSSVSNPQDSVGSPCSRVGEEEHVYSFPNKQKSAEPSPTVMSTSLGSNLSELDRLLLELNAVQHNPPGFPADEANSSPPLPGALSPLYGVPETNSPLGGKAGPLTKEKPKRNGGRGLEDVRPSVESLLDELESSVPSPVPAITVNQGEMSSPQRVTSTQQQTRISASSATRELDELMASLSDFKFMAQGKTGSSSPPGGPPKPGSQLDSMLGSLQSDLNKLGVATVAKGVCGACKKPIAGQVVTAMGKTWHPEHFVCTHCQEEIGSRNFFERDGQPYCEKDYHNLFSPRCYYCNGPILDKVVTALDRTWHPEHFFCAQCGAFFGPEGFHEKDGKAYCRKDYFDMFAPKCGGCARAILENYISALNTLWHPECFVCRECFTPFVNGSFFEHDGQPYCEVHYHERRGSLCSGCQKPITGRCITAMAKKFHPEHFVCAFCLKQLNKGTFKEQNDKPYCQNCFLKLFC
paxillin S258A (P49023, form named): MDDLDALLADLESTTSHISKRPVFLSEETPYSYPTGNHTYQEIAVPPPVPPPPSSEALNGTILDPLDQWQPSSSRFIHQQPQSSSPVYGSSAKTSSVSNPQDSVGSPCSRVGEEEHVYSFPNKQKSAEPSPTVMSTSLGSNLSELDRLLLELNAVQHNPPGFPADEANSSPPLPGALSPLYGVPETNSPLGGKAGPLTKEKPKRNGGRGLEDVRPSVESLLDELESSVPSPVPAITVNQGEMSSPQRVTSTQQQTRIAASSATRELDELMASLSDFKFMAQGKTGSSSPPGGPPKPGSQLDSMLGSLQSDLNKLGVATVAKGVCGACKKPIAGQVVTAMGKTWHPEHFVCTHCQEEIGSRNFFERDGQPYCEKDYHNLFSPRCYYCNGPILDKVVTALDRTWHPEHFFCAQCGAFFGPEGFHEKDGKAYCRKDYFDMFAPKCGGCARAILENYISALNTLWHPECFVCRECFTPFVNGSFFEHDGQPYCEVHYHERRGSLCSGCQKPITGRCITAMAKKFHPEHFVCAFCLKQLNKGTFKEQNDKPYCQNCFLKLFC
paxillin S272/274E (P49023, form named): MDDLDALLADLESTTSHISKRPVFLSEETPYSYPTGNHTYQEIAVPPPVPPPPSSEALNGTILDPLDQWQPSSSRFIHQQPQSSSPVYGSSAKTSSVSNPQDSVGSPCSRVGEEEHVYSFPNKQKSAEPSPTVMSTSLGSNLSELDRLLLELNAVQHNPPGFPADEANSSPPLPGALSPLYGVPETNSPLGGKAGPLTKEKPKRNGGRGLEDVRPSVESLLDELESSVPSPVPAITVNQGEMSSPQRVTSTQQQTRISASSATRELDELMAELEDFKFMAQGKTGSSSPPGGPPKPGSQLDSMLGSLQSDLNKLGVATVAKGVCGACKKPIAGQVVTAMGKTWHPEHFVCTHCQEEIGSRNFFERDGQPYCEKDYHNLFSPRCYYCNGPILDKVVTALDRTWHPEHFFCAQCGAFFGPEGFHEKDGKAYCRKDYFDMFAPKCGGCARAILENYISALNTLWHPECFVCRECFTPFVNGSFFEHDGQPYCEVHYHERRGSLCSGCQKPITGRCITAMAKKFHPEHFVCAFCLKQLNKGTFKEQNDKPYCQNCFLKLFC

The target in experiment [1] is TNFα converting enzyme (TACE/ADAM17) (UniProt P78536). The experiment is described as follows: co-immunoprecipitation of paxillin and TACE, 293T cells (FIG. 2A).
The target is the same in experiment [2]. The experiment in a line: co-immunoprecipitation with Nef/mNAKC and constitutive active Pak1/2 (FIG. 2D).
The target is the same in experiment [3]. The experiment in a line: co-immunoprecipitation of paxillin and TACE in the presence of Pak1/2 mutants (FIG. 2C).
For experiment [4] the target is unchanged. The experiment in a line: co-immunoprecipitation of paxillin mutants and TACE, 293T cells (FIG. 2A).

These are yes or no findings as the source states them, for the method shown. Binding seen in cells or lysates may run through a third protein. A result given as binding can be weak or reduced; the word gives no strength.

With “paxillin (wild type) (from UniProt P49023 1-557)”, the binding entry in experiment [1], in experiment [2] and in experiment [3] was “binds” each time.
Consider “paxillin S258A (from UniProt P49023 1-557)”, for which the binding result in experiment [4] and in experiment [2] was “binds” in each case.
As for “paxillin S272/274E (from UniProt P49023 1-557)”, in experiment [4], the binding result was “binds”.
